Experimental findings from PMC9800333, “Determinants of receptor tyrosine phosphatase homophilic adhesion: Structural comparison of PTPRK and PTPRM extracellular domains” (The Journal of Biological Chemistry, 2022) are described below.

Results are given in words; binding and its absence hold for the method and conditions named.

For assay [1], the target named is full-length PTPRK extracellular domain (human) (UniProt Q15262). Description: SEC-MALS; pH 6: peak fractions from pH 8 buffer exchanged into 50 mM Mes, pH 6, 250 mM NaCl; Superdex 200 Increase 10/300 GL; protein conjugate analysis for glycans; both purified. For orientation: In gel filtration, larger molecules generally elute earlier.
For assay [2] the target is unchanged. Description: SEC-SAXS-MALS; pH 6: S200 Increase 5/150 in 50 mM Mes, pH 6.0, 250 mM NaCl, 3% (v/v) glycerol; PTPRK-ECD 2.3 mg/ml, PTPRM-ECD 7.0 mg/ml injected; both purified.

B1: full-length PTPRK extracellular domain (domain or fragment, human, UniProt Q15262-3 28-752, looked up)
chain: QGQFSAGGCTFDDGPGACDYHQDLYDDFEWVHVSAQEPHYLPPEMPQGSYMIVDSSDHDPGEKARLQLPTMKENDTHCIDFSYLLYSQKGLNPGTLNILVRVNKGPLANPIWNVTGFTGRDWLRAELAVSTFWPNEYQVIFEAEVSGGRSGYIAIDDIQVLSYPCDKSPHFLRLGDVEVNAGQNATFQCIATGRDAVHNKLWLQRRNGEDIPVAQTKNINHRRFAASFRLQEVTKTDQDLYRCVTQSERGSGVSNFAQLIVREPPRPIAPPQLLGVGPTYLLIQLNANSIIGDGPIILKEVEYRMTSGSWTETHAVNAPTYKLWHLDPDTEYEIRVLLTRPGEGGTGLPGPPLITRTKCAEPMRTPKTLKIAEIQARRIAVDWESLGYNITRCHTFNVTICYHYFRGHNESKADCLDMDPKAPQHVVNHLPPYTNVSLKMILTNPEGRKESEETIIQTDEDVPGPVPVKSLQGTSFENKIFLNWKEPLDPNGIITQYEISYSSIRSFDPAVPVAGPPQTVSNLWNSTHHVFMHLHPGTTYQFFIRASTVKGFGPATAINVTTNISAPTLPDYEGVDASLNETATTITVLLRPAQAKGAPISAYQIVVEELHPHRTKREAGAMECYQVPVTYQNAMSGGAPYYFAAELPPGNLPEPAPFTVGDNRTYQGFWNPPLAPRKGYNIYFQAMSSVEKETKTQCVRIATKAAATEEPEVIPDPAKQTDRVV
modifications: native N-linked glycans (no deglycosylation)
notes: human PTPRK, full extracellular domain (MAM, Ig, FN1-4), residues 28-752; numbers count on: UniProt Q15262-3; Cloned into pHLSec (AgeI/KpnI) in frame with the vector's N-terminal secretion signal; The C-terminal His6 tag was included in the SAXS models; also called PTPRK-ECD; PTPRK full ECD; not shown: Lys-His6, C-terminal, kept
Consider B1, for which the binding result in assay [1] and in assay [2] was “no binding (condition: at pH 6)” throughout.
